Results deposited as PubChem BioAssay AID1508597 (Cure First, 2020)
Aim: 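Genes whose silencing sensitises or protects ovarian cancer cells against rucaparib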 (primary screen). Cell system: human ovarian carcinoma lines grown from tumours: OCI-P5x (papillary serous) and OCI-C5x (clear cell). Knock-down reagent: siRNA pool against human genes, 1.25 pmol siRNA per well. Timing: 72 h or 96 h, depending on the cell culture. Challenge: rucaparib 20 µM (about IC30) or vehicle, present until read-out. Detection: 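ATP luminescence measured at 72 or 96 h according to the culture, then normalised and expressed as percent viability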. Direction: viability, normalised: higher = more viable cells remaining. Hit rule: 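Active when normalised viability falls below 80 percent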. Calls: active = viability under 80%; inactive = viability 80% or more.
This is one part, drawn at random, of about 2,100 reagents tested. 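Calls flag viability under 80% in either arm, not effects specific to rucaparib; the reference for percent is not stated.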 Not given: the 100% reference.

gene symbol,rucaparib or vehicle,cell line,technical replicate,"viability, normalised (%)",call
H4C5,Rucaparib,OCI-C5x (clear cell),1,59.5,active
H4C5,Rucaparib,OCI-C5x (clear cell),2,38.8,active
H4C5,Rucaparib,OCI-C5x (clear cell),3,42,active
H4C5,Rucaparib,OCI-P5x (serous),1,73,active
H4C5,Rucaparib,OCI-P5x (serous),2,75.7,active
H4C5,Rucaparib,OCI-P5x (serous),3,69.9,active
H4C5,Vehicle,OCI-C5x (clear cell),1,55.8,active
H4C5,Vehicle,OCI-C5x (clear cell),2,58.6,active
H4C5,Vehicle,OCI-C5x (clear cell),3,68.6,active
H4C5,Vehicle,OCI-P5x (serous),1,76.2,active
H4C5,Vehicle,OCI-P5x (serous),2,66.6,active
H4C5,Vehicle,OCI-P5x (serous),3,70.5,active
SMYD2,Rucaparib,OCI-C5x (clear cell),1,28.3,active
SMYD2,Rucaparib,OCI-C5x (clear cell),2,20.9,active
SMYD2,Rucaparib,OCI-C5x (clear cell),3,37.2,active
SMYD2,Rucaparib,OCI-P5x (serous),1,55.8,active
SMYD2,Rucaparib,OCI-P5x (serous),2,54.7,active
SMYD2,Rucaparib,OCI-P5x (serous),3,65.3,active
SMYD2,Vehicle,OCI-C5x (clear cell),1,36.1,active
SMYD2,Vehicle,OCI-C5x (clear cell),2,36,active
SMYD2,Vehicle,OCI-C5x (clear cell),3,30.2,active
SMYD2,Vehicle,OCI-P5x (serous),1,54.6,active
SMYD2,Vehicle,OCI-P5x (serous),2,60.2,active
SMYD2,Vehicle,OCI-P5x (serous),3,76.4,active
DDX3Y,Rucaparib,OCI-C5x (clear cell),1,51.1,active
DDX3Y,Rucaparib,OCI-C5x (clear cell),2,33.3,active
DDX3Y,Rucaparib,OCI-C5x (clear cell),3,41.1,active
DDX3Y,Rucaparib,OCI-P5x (serous),1,43.7,active
DDX3Y,Rucaparib,OCI-P5x (serous),2,45.2,active
DDX3Y,Rucaparib,OCI-P5x (serous),3,49.1,active
DDX3Y,Vehicle,OCI-C5x (clear cell),1,46.5,active
DDX3Y,Vehicle,OCI-C5x (clear cell),2,57.1,active
DDX3Y,Vehicle,OCI-C5x (clear cell),3,34,active
DDX3Y,Vehicle,OCI-P5x (serous),1,30.1,active
DDX3Y,Vehicle,OCI-P5x (serous),2,35.3,active
DDX3Y,Vehicle,OCI-P5x (serous),3,47.8,active
RAPGEF4,Rucaparib,OCI-C5x (clear cell),1,65.1,active
RAPGEF4,Rucaparib,OCI-C5x (clear cell),2,53.1,active
RAPGEF4,Rucaparib,OCI-C5x (clear cell),3,64,active
RAPGEF4,Rucaparib,OCI-P5x (serous),1,98.9,inactive
RAPGEF4,Rucaparib,OCI-P5x (serous),2,87.4,inactive
RAPGEF4,Rucaparib,OCI-P5x (serous),3,76.3,active
RAPGEF4,Vehicle,OCI-C5x (clear cell),1,44.2,active
RAPGEF4,Vehicle,OCI-C5x (clear cell),2,50.7,active
RAPGEF4,Vehicle,OCI-C5x (clear cell),3,50.5,active
RAPGEF4,Vehicle,OCI-P5x (serous),1,69.2,active
RAPGEF4,Vehicle,OCI-P5x (serous),2,56.9,active
RAPGEF4,Vehicle,OCI-P5x (serous),3,55.7,active

Already shown: an excerpt of the list.
gene symbol,rucaparib or vehicle,cell line,technical replicate,"viability, normalised (%)",call
RAPGEF4,Rucaparib,OCI-C5x (clear cell),3,64,active
RAPGEF4,Rucaparib,OCI-P5x (serous),1,98.9,inactive
RAPGEF4,Rucaparib,OCI-P5x (serous),2,87.4,inactive
RAPGEF4,Rucaparib,OCI-P5x (serous),3,76.3,active
RAPGEF4,Vehicle,OCI-C5x (clear cell),1,44.2,active
RAPGEF4,Vehicle,OCI-C5x (clear cell),2,50.7,active
